These are yes or no findings as the source states them, for the method shown.
Target: bovine serum albumin (bovine) (UniProt P02769)
Test: SPR; EGFR (20 µg/mL) or BSA (20 µg/mL) covalently attached (EDC/NHS) to a carboxymethylated dextran chip; peptides injected as analytes at 15 µL/min; 25 °C; PBS with 0.01% Tween 20, pH 7.4; global fit, 1:1 Langmuir model with mass transport; KD from koff/kon; both purified

Amino acid sequences for entries named in this document (tags omitted). Residues count along the entry.
UniProt P02769, residues 25-607: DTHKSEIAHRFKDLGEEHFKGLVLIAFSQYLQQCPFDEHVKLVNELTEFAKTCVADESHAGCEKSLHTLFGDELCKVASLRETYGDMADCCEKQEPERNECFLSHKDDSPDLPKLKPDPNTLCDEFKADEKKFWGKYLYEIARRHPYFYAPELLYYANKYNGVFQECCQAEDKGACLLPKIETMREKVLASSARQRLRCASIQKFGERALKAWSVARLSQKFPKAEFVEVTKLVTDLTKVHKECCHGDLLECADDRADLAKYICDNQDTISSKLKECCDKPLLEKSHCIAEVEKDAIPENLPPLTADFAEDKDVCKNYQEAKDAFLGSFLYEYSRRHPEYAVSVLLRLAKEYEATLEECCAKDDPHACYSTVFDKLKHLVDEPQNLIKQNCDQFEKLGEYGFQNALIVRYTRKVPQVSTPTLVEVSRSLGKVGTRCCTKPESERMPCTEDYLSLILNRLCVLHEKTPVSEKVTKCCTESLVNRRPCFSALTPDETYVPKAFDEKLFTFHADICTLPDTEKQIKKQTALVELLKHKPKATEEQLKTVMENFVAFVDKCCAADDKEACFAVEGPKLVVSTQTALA

For WSGENGPGFYDYEA (designed binder) [Pep11], the binding was “no binding”.

— PMC6353898, “A Rational Approach for Creating Peptides Mimicking Antibody Binding” (Scientific Reports, 2019)
